The values that follow come from patent US7141417 (THOMAS JEFFERSON UNIVERSITY, dated 2006).

The chains behind the UniProt entries cited, without tags or fusion partners. Where a name states a change or a piece, a line headed by the entry shows the natural chain unless it says otherwise. A line that says so, or that is headed by a name, gives the form on record, which may keep a tag or linker. Residues count along the entry.
UniProt P26641: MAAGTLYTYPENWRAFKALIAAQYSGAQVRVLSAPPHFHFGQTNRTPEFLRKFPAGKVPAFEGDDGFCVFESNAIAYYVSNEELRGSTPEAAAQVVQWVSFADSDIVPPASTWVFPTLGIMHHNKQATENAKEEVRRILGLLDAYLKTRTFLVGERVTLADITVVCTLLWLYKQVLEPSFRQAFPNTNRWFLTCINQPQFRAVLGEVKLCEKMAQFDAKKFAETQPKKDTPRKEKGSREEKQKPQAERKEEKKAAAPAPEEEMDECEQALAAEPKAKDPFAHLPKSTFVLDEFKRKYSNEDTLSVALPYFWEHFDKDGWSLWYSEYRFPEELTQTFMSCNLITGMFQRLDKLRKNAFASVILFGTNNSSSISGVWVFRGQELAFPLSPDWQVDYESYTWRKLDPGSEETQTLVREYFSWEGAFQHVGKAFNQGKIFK
GST fused with EF1-γ(N): residues 1-153 of P26641

No constants are given. Whether binding was seen depends on the method and setting. For some assays here: In cells and extracts the contact can be indirect. Some entries that bind do so weakly or less than the wild type. For some assays here: Sequences can lack the tags named with a protein.

For assay [1], the target named is GST fused with truncated (40 kilodalton) Fez1 protein (human) [GST: P08515]. Briefly: in vitro binding assay, GST fusion on glutathione-agarose beads, ^35S-labeled partner, SDS-PAGE; buffers A and B.
Assay [2] addresses fusion protein comprising the GAL4 protein DNA binding domain fused with full length Fez1 protein (human). Briefly: yeast two hybrid (strain Y190), β-galactosidase assay.
Assay [3] has as its target glutathione S-transferase (GST) protein [GST: P08515]. Nature of the assay: in vitro binding of ^35S-labeled in vitro translated EF to GST fusion/GST on glutathione-agarose beads.
Assay [4] concerns the target EXP tag-fused EF1-γ protein (human) (UniProt P26641). Briefly: co-immunoprecipitation from lysate of co-transfected HeLaS3 cells, immunoblot. For orientation: A western blot detects proteins with antibodies after separation by electrophoresis.
In assay [5] the target is GST fused with EF1-γ(N) (human) (UniProt P26641). Nature of the assay: in vitro binding assay (figure legend); by paragraph 373 the labeled partner was Fez1 and EF1-γ(N) was GST-fused.
Assay [6] has as its target GST fused with truncated (40 kilodalton) Fez1 protein (human) [GST: P08515]. Nature of the assay: in vitro binding of ^35S-labeled truncated Fez1 with GST-fused truncated Fez1, buffer B.
For assay [7], the target named is GST fused with EF1-γ(N) (human) (UniProt P26641). Briefly: in vitro binding of ^35S-labeled Fez1 with GST fused with EF1-γ(N), buffer B.
Assay [8] deals with GST fused with truncated (40 kilodalton) Fez1 protein (human) [GST: P08515]. Nature of the assay: in vitro binding assay (figure legend).

For the molecule “^35S-methionine-labeled in vitro translated EF1-γ protein (from UniProt P26641 1-437)”, the binding result in assay [1] is “binds”. In the case of “EF1-γ clone of a human testes cDNA expression library fused with the GAL4 protein transcription activation domain (pACT2 vector) (from UniProt P26641 1-437)”, in assay [2], the binding result is listed as “binds”.

B1: ^35S-methionine-labeled in vitro translated EF1-β (protein, UniProt P24534 1-225, looked up)
chain: MGFGDLKSPAGLQVLNDYLADKSYIEGYVPSQADVAVFEAVSSPPPADLCHALRWYNHIKSYEKEKASLPGVKKALGKYGPADVEDTTGSGATDSKDDDDIDLFGSDDEEESEEAKRLREERLAQYESKKAKKPALVAKSSILLDVKPWDDETDMAKLEECVRSIQADGLVWGSSKLVPVGYGIKKLQIQCVVEDDKVGTDMLEEQITAFEDYVQSMDVAAFNKI
modifications: ^35S-methionine label
Consider B1, for which the binding entry in assay [3] is “binds”.

B2: V5 tag-fused Fez1 protein (protein, not shown: small tags and cut ends)
chain: MGSVSSLISGHSFHSKHCRASQYKLRKSSHLKKLNRYSDGLLRFGFSQDSGHGKSSSKMGKSEDFFYIKVSQKARGSHHPDYTALSSGDLGGQAGVDFDPSTPPKLMPFSNQLEMGSEKGAVRPTAFKPVLPRSGAILHSSPESASHQLHPAPPDKPKEQELKPGLCSGALSDSGRNSMSSLPTHSTSSSYQLDPLVTPVGPTSRFGGSAHNITQGIVLQDSNMMSLKALSFSDGGSKLGHSNKADKGPSCVRSPISTDECSIQELEQKLLEREGALQKLQRSFEEKELASSLAYEERPRRCRDELEGPEPKGGNKLKQASQKSQRAQQVLHLQVLQLQQEKRQLRQELESLMKEQDLLETKLRSYEREKTSFGPALEETQWEVCQKSGEISLLKQQLKESQTEVNAKASEILGLKAQLKDTRGKLEGLELRTQDLEGALRTKGLELEVCENELQRKKNEAELLREKVNLLEQELQELRAQAALARDMGPPTFPEDVPALQRELERLRAELREERQGHDQMSSGFQHERLVWKEEKEKVIQYQKQLQQSYVAMYQRNQRLEKALQQLARGDSAGEPLEVDLEGADIPYEDIIATEI
Turning to B2, the binding result in assay [4] was “binds”.

B3: ^35S-methionine-labeled in vitro translated truncated 40 kDa Fez1 protein (protein)
chain: MGSVSSLISGHSFHSKHCRASQYKLRKSSHLKKLNRYSDGLLRFGFSQDSGHGKSSSKMGKSEDFFYIKVSQKARGSHHPDYTALSSGDLGGQAGVDFDPSTPPKLMPFSNQLEMGSEKGAVRPTAFKPVLPRSGAILHSSPESASHQLHPAPPDKPKEQELKPGLCSGALSDSGRNSMSSLPTHSTSSSYQLDPLVTPVGPTSRFGGSAHNITQGIVLQDSNMMSLKALSFSDGGSKLGHSNKADKGPSCVRSPISTDECSIQELEQKLLEREGALQKLQRSFEEKELASSLAYEERPRRCRDELEGPEPKGGNKLKQASQKSQRAQQVLHLQVLQLQQEKRQLRQELESLMKEQDLLETKLRSYEREKTSFGPA
modifications: ^35S-methionine label
On to B3, for which the binding result in assay [5], in assay [6], in assay [7] and in assay [8] was “binds” in each case.
